PubChem BioAssay AID602196 | INSERM, 2012

Assay: 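Modifiers of cisplatin sensitivity in A549 cells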
Cells: human A549 lung cancer cells
Reagent: siRNA pair against human genes
Timing: 48 h transfection before cisplatin; time from cisplatin to read-out not stated
Challenge: cisplatin at a dose killing half of control-siRNA cells; exact dose and duration not given
Measured: 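Shift in cisplatin death relative to control siRNA, from -50 (all cells die) to +50 (no cells die); siRNAs harmful on their own scored 0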
Scale: two-siRNA summed score (-2 to +2): higher = both siRNAs protect from cisplatin killing; -2 means both sensitise; mean protection from cisplatin (shift in death) and protection from cisplatin (shift in death), siRNA C and protection from cisplatin (shift in death), siRNA D: higher = protection from cisplatin killing
Hit rule: 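Each siRNA scores 0 if harmful alone by LDH or WST-1, otherwise +1 if it reduces and -1 if it increases cisplatin killing; a gene is active when both siRNAs agree (sum +2 or -2)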
Calls: active = both siRNAs shift cisplatin killing the same way; inactive = no consistent shift, or siRNA harmful alone
This is one part, drawn at random, of about 23,000 reagents. 455 of all reagents (2%) were called active. 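Active includes both protection and sensitisation; some change values fall well beyond the stated -50 to +50 range.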 A number with no mark means an inactive call. Not stated in the record: the amount of reagent.

gene | PubChem SID | two-siRNA summed score (-2 to +2) | mean protection from cisplatin (shift in death) (%) | protection from cisplatin (shift in death), siRNA C (%) | protection from cisplatin (shift in death), siRNA D (%)
SERPINA7 | SID131501760 | -1 | -7.5 | -2.6 | -12.5
PDXDC1 | SID131516195 | 0 | 10.4 | 14.6 | 6.3
LOC387903 | SID131509814 | 0 | 2.6 | 3.2 | 1.9
OR5D14 | SID131522074 | 1 | 16.1 | 30.3 | 2
TTC6 | SID131505951 | 0 | -2.3 | -6.6 | 2
TTC6 | SID131515879 | 0 | 9.8 | 15.2 | 4.4
LOC401007 | SID131514078 | 0 | 7.4 | 8 | 6.7
FAM161B | SID131506762 | 0 | -1 | -3.6 | 1.6
ATG4B | SID131505603 | 0 | -2.9 | -4.6 | -1.2
NOCT | SID131516283 | 0 | 10.6 | 4.4 | 16.8
NTF4 | SID131512857 | 0 | 5.9 | 10.1 | 1.8
INHBC | SID131503721 | 0 | -8.2 | -8.7 | -7.7
LOC388275 | SID131522103 | 1 | 16.3 | 22 | 10.6
LINC01101 | SID131501749 | -1 | -7.6 | 6.4 | -21.5
LOC90193 | SID131510869 | 0 | 3.7 | -3.1 | 10.6
LOC442180 | SID131523082 | 2 (active) | 19.1 | 21.2 | 17
PGLYRP2 | SID131506237 | 0 | -1.8 | 15.9 | -19.5
KCNC1 | SID131502680 | -1 | 2 | -16.9 | 20.8
BPESC1 | SID131504620 | 0 | -4.9 | 10.5 | -20.3
ZNF592 | SID131514358 | 0 | 7.7 | 13.2 | 2.2
RTKN | SID131503489 | 0 | -9.6 | -4.1 | -15.2
SRSF2 | SID131517291 | 0 | 12.9 | 15.5 | 10.4
LOC441877 | SID131521673 | 1 | 14.4 | 8.6 | 20.2
LOC388806 | SID131508617 | 0 | 1.3 | 6 | -3.5
ZNF839 | SID131508646 | 0 | 1.3 | 7 | -4.4
TAFA5-AS1 | SID131505750 | 0 | -2.6 | 9.6 | -14.9
LOC388791 | SID131521710 | 1 | 14.5 | 14.8 | 14.3
TEX13B | SID131509569 | 0 | 2.3 | -15.6 | 20.1
TRAPPC2 | SID131502715 | -1 | 3.4 | 21.5 | -14.7
SLC9A1 | SID131503184 | 0 | -12.4 | -4.1 | -20.6
LOC387824 | SID131519427 | 1 | 5.5 | -3.5 | 14.5
OSGEP | SID131503624 | 0 | -8.8 | -24.1 | 6.5
OR5D16 | SID131513448 | 0 | 6.6 | 7.9 | 5.3
B3GNT4 | SID131504948 | 0 | -4.1 | -4.1 | -4.1
CREG1 | SID131507009 | 0 | -0.7 | -3.2 | 1.9
LOC401220 (retired record) | SID131514469 | 0 | 7.8 | 12 | 3.7
LOC442683 | SID131517813 | 0 | 14.9 | 10.1 | 19.8
UNC13C | SID131504881 | 0 | -4.3 | 21.4 | -29.9

Targets listed so far whose target name begins with O or o (3):
gene | PubChem SID | two-siRNA summed score (-2 to +2) | mean protection from cisplatin (shift in death) (%) | protection from cisplatin (shift in death), siRNA C (%) | protection from cisplatin (shift in death), siRNA D (%)
OR5D14 | SID131522074 | 1 | 16.1 | 30.3 | 2
OSGEP | SID131503624 | 0 | -8.8 | -24.1 | 6.5
OR5D16 | SID131513448 | 0 | 6.6 | 7.9 | 5.3

Additional reagents:
gene | PubChem SID | two-siRNA summed score (-2 to +2) | mean protection from cisplatin (shift in death) (%) | protection from cisplatin (shift in death), siRNA C (%) | protection from cisplatin (shift in death), siRNA D (%)
LOC254808 | SID131506014 | 0 | -2.2 | -6.3 | 1.9
IGFBP5 | SID131510382 | 0 | 3.2 | -8 | 14.4
SGTB | SID131511738 | 0 | 4.7 | 8.2 | 1.2
LOC285344 | SID131520115 | 1 | 8.7 | -1.6 | 19.1
RPL36AL | SID131513742 | 0 | 7 | 10.5 | 3.4
ELP4 | SID131501941 | -1 | -6.5 | 4.7 | -17.6
KLHL41 | SID131516917 | 0 | 11.9 | 17.4 | 6.5
ATP10A | SID131517937 | 0 | 15.5 | 7.1 | 23.8
LOC440957 | SID131507217 | 0 | -0.4 | 4.3 | -5.1
MED6 | SID131503172 | 0 | -12.6 | -22.1 | -3
NQO2 | SID131503096 | 0 | -13.8 | -4.7 | -22.9
PSMD3 | SID131522227 | 1 | 17 | 18.5 | 15.4
FAIM | SID131515039 | 0 | 8.6 | 4.9 | 12.3
DMRTB1 | SID131508566 | 0 | 1.2 | 2.8 | -0.4
LOC441408 | SID131512868 | 0 | 5.9 | 8.4 | 3.5
SLC16A3 | SID131508281 | 0 | 0.9 | -5.6 | 7.3
LOC391276 | SID131520658 | 1 | 10.7 | 5.1 | 16.3
RBMS1 | SID131517643 | 0 | 14.2 | 9.8 | 18.5
OR52A5 | SID131521158 | 1 | 12.4 | 7.7 | 17.1
IKZF3 | SID131517720 | 0 | 14.5 | 19.9 | 9
PDIA5 | SID131502920 | 0 | -18.5 | -15.3 | -21.6
CYP2D7 | SID131507255 | 0 | -0.4 | 14.8 | -15.5
MYOF | SID131515482 | 0 | 9.2 | 4.5 | 14
IRAG1 | SID131505765 | 0 | -2.6 | -1.7 | -3.5
SOX14 | SID131510002 | 0 | 2.8 | 7.7 | -2.2
LOC201181 | SID131521520 | 1 | 13.8 | 14.7 | 13
LOC442744 (retired record) | SID131517423 | 0 | 13.4 | 5.6 | 21.1
MAP2 | SID131511870 | 0 | 4.8 | 11.3 | -1.6
CD177 | SID131513302 | 0 | 6.4 | -3.9 | 16.8
FBXL9P | SID131519722 | 1 | 7.1 | 14.1 | 0.2
LOC440858 | SID131522151 | 1 | 16.5 | 20.4 | 12.5
UTP23 | SID131520939 | 1 | 11.6 | 23.3 | -0.1
TMEM125 | SID131515614 | 0 | 9.4 | 10.2 | 8.7
LOC387789 | SID131510448 | 0 | 3.3 | 5.1 | 1.4
NPC2 | SID131500408 | -2 (active) | -12.6 | -14.8 | -10.4
